Source: the supplement of paper PMC10849652
This is one part of the list.

Sequences of proteins named here, by UniProt entry; tags and fusion partners are left off. A change or cut given only in a name is not applied to a line headed by its entry.
UniProt O75822, whole entry, looked up: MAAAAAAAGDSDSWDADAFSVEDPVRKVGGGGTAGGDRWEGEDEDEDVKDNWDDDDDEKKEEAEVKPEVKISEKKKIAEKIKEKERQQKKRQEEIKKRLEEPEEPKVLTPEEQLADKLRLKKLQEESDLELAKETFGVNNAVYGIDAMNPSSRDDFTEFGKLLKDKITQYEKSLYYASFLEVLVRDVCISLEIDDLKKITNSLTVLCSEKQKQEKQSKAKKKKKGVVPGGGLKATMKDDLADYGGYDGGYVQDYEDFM
UniProt Q9GZV4: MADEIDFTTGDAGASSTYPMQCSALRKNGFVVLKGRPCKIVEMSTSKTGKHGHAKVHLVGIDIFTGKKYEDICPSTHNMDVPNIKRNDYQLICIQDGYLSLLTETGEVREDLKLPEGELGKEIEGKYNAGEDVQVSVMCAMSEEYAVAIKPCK
UniProt Q9NQZ7: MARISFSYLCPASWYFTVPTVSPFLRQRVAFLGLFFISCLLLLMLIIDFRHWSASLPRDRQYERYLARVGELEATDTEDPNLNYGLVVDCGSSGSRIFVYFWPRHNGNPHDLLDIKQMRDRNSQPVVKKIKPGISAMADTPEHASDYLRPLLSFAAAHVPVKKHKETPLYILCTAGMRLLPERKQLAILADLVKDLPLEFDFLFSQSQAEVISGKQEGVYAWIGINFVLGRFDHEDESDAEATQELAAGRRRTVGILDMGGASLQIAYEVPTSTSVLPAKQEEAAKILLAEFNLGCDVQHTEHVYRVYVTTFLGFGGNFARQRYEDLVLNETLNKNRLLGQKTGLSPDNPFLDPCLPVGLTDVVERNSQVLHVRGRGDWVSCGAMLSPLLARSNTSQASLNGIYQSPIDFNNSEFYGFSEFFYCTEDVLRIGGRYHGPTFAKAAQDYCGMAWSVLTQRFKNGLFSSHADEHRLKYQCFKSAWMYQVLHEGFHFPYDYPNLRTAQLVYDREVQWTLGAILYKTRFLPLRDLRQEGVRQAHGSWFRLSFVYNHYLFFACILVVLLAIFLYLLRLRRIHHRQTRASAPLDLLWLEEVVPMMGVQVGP
UniProt Q8N8S7: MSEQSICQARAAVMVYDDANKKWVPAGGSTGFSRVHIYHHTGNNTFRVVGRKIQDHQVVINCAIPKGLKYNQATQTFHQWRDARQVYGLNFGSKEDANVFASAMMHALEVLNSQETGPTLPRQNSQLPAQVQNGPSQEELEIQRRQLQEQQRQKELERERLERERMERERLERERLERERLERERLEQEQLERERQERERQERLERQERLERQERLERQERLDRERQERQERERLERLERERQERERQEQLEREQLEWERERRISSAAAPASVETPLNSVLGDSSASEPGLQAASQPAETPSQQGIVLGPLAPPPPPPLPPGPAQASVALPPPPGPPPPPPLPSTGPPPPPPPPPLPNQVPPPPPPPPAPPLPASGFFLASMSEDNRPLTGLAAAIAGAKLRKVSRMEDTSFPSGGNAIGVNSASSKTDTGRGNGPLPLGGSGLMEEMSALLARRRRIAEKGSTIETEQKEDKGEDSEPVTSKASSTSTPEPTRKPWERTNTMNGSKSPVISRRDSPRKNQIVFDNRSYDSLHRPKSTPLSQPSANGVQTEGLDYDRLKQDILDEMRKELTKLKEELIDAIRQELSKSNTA
UniProt Q9BUP0: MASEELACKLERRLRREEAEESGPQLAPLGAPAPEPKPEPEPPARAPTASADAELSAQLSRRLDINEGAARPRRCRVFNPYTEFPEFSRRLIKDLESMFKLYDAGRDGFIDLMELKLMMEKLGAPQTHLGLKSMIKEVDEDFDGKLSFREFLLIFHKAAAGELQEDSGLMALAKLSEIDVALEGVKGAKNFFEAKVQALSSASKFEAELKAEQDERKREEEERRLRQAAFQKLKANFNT
UniProt P19419: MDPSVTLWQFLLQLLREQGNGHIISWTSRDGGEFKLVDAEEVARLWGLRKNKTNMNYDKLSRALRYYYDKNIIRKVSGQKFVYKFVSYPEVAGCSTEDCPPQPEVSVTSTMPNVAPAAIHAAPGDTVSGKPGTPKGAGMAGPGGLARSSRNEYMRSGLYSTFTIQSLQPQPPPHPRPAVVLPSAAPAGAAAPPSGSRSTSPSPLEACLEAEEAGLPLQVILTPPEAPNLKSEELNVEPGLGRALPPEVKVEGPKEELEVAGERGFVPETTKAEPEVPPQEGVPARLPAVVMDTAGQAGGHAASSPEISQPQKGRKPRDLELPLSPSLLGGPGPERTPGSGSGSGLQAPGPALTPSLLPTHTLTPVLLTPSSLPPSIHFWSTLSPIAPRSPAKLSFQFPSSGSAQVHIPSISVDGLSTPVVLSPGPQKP
UniProt Q12805: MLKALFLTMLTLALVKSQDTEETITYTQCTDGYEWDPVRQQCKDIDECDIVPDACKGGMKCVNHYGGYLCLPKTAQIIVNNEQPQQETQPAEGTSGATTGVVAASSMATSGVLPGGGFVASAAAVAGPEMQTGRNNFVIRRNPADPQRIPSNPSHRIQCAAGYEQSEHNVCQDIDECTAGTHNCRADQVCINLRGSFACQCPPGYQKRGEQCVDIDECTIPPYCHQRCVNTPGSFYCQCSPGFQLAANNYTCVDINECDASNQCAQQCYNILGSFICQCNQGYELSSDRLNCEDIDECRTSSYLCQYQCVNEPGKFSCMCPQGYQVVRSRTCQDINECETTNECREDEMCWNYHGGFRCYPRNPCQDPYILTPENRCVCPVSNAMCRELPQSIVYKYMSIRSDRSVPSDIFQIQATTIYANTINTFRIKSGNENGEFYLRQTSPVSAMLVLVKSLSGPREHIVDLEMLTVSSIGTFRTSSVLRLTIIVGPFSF
UniProt Q9H777: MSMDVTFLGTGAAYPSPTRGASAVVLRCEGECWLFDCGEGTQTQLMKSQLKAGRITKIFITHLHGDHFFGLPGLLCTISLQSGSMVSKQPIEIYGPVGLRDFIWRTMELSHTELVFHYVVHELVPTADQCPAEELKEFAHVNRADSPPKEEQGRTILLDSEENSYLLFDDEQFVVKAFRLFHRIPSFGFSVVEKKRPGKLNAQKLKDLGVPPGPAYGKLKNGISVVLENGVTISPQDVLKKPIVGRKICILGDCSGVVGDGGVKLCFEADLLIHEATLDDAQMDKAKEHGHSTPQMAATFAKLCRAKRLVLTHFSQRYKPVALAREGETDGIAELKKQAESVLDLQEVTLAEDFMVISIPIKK
UniProt Q9Y6B2: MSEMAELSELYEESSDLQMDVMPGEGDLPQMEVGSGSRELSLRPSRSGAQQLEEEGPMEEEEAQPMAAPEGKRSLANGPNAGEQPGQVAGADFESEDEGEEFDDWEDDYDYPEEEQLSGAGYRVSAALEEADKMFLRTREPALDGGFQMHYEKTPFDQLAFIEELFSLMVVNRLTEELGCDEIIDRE
UniProt Q04637, whole entry, looked up: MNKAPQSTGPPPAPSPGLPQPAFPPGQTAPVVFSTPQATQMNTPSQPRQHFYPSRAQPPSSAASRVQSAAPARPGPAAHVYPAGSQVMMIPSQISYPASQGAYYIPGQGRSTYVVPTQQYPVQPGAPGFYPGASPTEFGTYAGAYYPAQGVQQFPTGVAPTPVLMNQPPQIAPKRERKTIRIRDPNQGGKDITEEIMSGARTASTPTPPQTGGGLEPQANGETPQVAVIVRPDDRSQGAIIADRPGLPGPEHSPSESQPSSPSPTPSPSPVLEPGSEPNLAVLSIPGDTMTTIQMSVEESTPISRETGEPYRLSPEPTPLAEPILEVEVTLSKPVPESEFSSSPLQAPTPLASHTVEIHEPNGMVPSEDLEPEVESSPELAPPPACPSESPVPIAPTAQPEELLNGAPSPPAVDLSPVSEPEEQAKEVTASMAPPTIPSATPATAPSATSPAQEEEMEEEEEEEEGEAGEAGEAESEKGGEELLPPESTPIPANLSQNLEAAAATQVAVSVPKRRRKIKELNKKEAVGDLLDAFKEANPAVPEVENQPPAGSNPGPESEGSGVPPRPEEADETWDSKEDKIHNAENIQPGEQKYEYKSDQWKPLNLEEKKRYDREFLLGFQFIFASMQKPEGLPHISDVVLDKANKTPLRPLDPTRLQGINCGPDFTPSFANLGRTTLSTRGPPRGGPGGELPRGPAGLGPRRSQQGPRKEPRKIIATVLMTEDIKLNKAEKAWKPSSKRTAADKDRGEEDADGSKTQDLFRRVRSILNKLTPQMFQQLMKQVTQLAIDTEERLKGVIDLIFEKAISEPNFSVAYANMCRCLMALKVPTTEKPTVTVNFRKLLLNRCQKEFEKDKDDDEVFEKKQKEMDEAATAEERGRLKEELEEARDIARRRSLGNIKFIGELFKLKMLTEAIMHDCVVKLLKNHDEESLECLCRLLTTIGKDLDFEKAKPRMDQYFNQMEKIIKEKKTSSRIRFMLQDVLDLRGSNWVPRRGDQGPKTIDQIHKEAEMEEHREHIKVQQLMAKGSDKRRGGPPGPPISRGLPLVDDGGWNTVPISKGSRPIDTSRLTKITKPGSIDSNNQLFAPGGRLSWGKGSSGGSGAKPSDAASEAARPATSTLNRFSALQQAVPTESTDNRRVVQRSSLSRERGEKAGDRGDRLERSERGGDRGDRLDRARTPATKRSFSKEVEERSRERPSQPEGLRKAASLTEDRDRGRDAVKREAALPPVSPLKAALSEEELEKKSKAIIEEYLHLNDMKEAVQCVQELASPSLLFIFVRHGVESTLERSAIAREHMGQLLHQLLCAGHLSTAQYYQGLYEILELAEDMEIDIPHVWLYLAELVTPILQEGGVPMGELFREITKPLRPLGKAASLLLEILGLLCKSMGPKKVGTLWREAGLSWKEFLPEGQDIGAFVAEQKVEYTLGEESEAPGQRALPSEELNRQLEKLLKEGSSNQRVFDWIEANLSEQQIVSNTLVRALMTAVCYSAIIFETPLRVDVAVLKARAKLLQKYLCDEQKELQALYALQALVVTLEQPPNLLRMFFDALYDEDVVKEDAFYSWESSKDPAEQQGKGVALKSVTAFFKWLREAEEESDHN
UniProt Q9Y3B6: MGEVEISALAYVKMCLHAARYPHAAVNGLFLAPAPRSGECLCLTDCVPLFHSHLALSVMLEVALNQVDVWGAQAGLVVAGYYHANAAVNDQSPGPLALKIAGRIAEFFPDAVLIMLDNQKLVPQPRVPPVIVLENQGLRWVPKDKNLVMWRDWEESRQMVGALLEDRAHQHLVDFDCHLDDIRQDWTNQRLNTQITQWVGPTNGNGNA
UniProt P32519: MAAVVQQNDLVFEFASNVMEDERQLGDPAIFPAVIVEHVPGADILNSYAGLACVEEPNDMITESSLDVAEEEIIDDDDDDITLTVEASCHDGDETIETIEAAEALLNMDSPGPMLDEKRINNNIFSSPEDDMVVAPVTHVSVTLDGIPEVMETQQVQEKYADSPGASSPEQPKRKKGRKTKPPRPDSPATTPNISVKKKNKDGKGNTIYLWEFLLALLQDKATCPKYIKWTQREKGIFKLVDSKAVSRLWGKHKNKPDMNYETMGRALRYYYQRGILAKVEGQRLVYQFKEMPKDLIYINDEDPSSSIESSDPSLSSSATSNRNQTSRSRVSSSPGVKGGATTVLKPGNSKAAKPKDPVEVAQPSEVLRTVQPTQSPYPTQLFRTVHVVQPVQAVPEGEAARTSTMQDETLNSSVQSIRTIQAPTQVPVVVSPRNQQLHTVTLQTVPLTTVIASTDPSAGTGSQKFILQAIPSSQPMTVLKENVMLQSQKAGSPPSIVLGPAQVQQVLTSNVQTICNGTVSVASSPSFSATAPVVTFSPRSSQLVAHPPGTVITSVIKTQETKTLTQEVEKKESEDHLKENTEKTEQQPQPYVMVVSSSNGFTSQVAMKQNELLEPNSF
UniProt Q14156: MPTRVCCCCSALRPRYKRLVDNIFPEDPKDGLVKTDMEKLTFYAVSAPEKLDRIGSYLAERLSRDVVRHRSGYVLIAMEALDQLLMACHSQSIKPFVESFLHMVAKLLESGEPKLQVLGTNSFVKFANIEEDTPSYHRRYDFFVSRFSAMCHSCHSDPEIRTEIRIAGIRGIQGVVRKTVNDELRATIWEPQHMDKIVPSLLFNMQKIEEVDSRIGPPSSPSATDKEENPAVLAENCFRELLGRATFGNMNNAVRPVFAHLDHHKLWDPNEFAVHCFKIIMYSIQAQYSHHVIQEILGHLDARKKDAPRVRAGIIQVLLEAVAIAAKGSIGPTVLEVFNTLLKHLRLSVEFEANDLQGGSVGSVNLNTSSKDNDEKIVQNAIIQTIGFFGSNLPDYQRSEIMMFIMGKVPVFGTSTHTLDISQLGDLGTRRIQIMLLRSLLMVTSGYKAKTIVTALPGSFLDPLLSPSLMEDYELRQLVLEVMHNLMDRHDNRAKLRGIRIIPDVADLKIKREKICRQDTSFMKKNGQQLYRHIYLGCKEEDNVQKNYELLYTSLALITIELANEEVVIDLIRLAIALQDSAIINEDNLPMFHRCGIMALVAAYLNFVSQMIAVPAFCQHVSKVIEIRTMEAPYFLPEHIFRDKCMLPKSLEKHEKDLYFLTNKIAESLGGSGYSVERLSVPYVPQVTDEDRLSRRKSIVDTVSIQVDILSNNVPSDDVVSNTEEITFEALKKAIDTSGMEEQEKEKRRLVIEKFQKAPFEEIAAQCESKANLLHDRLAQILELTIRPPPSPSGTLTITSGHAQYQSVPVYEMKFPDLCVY

The targets below were run with Cc1ccc(NC(=O)c2ccc(CN3CC[C@H](N(C)C)C3)c(C(F)(F)F)c2)cc1Nc1nccc(-c2cncnc2)n1 [bafetinib] (assay: log2 fold change, soluble protein after heating vs DMSO (PISA); higher = thermal stabilisation; K562 cells, 10 uM, 30 min; active = over 0.2 and 3.5 SD of the protein, either way, in both replicates (recomputed)).
In short: (§1)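 K562 cells (2×10^6 cells/mL) were treated with 10 μM compound for 30 min, and aliquots were heated for 3 min over 48°C-58°C. Pooled aliquots were extracted in PBS with 0.5% NP-40 at 4°C, and the supernatant after 21,000xg for 90 min was measured by TMTpro 16plex LC-MS/MS with channel sums equalised. Reported thermal stability, relative to control samples and from duplicates, is a log2 fold change.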

log2 fold change, inactive:
EIF3J isoform 2 (UniProt O75822) -0.033
EEF1AKMT2 (UniProt Q5JPI9) 0.234
EIF5A2 (UniProt Q9GZV4) 0.002
EIF1B (UniProt O60739) -0.127
EEF1AKMT4-ECE2 (UniProt P0DPD8) -0.245
ENTPD7 (UniProt Q9NQZ7) -0.165

These targets were tested with Cc1cccc(CC(=O)N2CCc3c2ccc(-c2cn(C)c4ncnc(N)c24)c3F)n1 in the same assay as above.
In short: as §1

log2 fold change, inactive:
ENAH (UniProt Q8N8S7) -0.194
EHBP1 (UniProt Q8NDI1) -0.154
EP400 (UniProt Q96L91) -0.106
EFHD1 (UniProt Q9BUP0) -0.055
ELK1 (UniProt P19419) 0.268
ELOA (UniProt Q14241) -0.117
EIF4H isoform 2 (UniProt Q15056) -0.094
EEF2K (UniProt O00418) 0.007
EFEMP1 (UniProt Q12805) -0.036
ELAC1 (UniProt Q9H777) 0.124
EID1 (UniProt Q9Y6B2) -0.438
EIF4G1 (UniProt Q04637) 0.017
ENKD1 (UniProt Q9H0I2) 0.026
EFCAB2 (UniProt Q5VUJ9) -0.025

Each target was assayed with Cc1cn(-c2cc(NC(=O)c3ccc(C)c(Nc4nccc(-c5cccnc5)n4)c3)cc(C(F)(F)F)c2)cn1 [nilotinib] in the same assay as above.
In short: as §1

log2 fold change, inactive:
EMC9 (UniProt Q9Y3B6) -0.105
ELF1 (UniProt P32519) 0.096
EIF3J isoform 2 (UniProt O75822) -0.101
EFHD1 (UniProt Q9BUP0) -0.034
EPB41, A0A2R8Y783 0.033
EFR3A (UniProt Q14156) 0.163
ELAC1 (UniProt Q9H777) 0.145
EID1 (UniProt Q9Y6B2) -0.022
ENTPD7 (UniProt Q9NQZ7) -0.104

What follows are targets tested with Cc1nc(Nc2n[nH]c3c2CN(C(=O)N[C@H](CN(C)C)c2ccccc2)C3(C)C)c2sccc2n1 in the same assay as above.
In short: as §1

log2 fold change, inactive:
EMC9 (UniProt Q9Y3B6) -0.13
ELF1 (UniProt P32519) -0.028
EIF3J isoform 2 (UniProt O75822) -0.016
EFHD1 (UniProt Q9BUP0) 0.403
EPB41, A0A2R8Y783 -0.003
EFR3A (UniProt Q14156) -0.004
ELAC1 (UniProt Q9H777) -0.111
EID1 (UniProt Q9Y6B2) -0.084
ENTPD7 (UniProt Q9NQZ7) -0.17

Each target was assayed with Cc1nc(Nc2ncc(C(=O)Nc3c(C)cccc3Cl)s2)cc(N2CCN(CCO)CC2)n1 [dasatinib] in the same assay as above.
In short: as §1

log2 fold change, inactive:
ENO3 (UniProt K7EKN2) -0.249
ELMO2 (UniProt Q96JJ3) -0.021
ELF1 (UniProt P32519) -0.134
ELOVL7 (UniProt A1L3X0) -0.088
EIF3J isoform 2 (UniProt O75822) 0.017
EFHD1 (UniProt Q9BUP0) 0.284
EIF3I (UniProt Q5TFK1) -0.27
EPB41, A0A2R8Y783 0.154
EP400P1 isoform 6 (UniProt Q6ZTU2) -0.16
EIF5A2 (UniProt Q9GZV4) -0.038
EFEMP1 (UniProt Q12805) -0.004
EEF1AKMT4-ECE2 (UniProt P0DPD8) -0.105
ELAC1 (UniProt Q9H777) -0.073
EIF4G1 (UniProt Q04637) -0.191
ENTPD7 (UniProt Q9NQZ7) -0.235
ENTR1 (UniProt Q96C92) 0.003

Each target was assayed with Cc1ncc(-c2ccnc(Nc3ccc(S(C)(=O)=O)cc3)n2)n1C(C)C in the same assay as above.
In short: as §1

log2 fold change, inactive:
EMC9 (UniProt Q9Y3B6) 0.028
ELF1 (UniProt P32519) 0.122
EIF3J isoform 2 (UniProt O75822) -0.013
EFHD1 (UniProt Q9BUP0) 0.199
EPB41, A0A2R8Y783 -0.044
EFR3A (UniProt Q14156) 0.015
ELAC1 (UniProt Q9H777) -0.103
EID1 (UniProt Q9Y6B2) -0.032
ENTPD7 (UniProt Q9NQZ7) 0.056

Each target was assayed with Cn1cc(-c2ccc3c(c2)CCN3C(=O)Cc2cccc(C(F)(F)F)c2)c2c(N)ncnc21 in the same assay as above.
In short: as §1

log2 fold change, inactive:
ELF1 (UniProt P32519) 0.003
ELOVL7 (UniProt A1L3X0) -0.057
EHBP1 (UniProt Q8NDI1) -0.076
EP400 (UniProt Q96L91) -0.109
EFHD1 (UniProt Q9BUP0) -0.034
EIF3I (UniProt Q5TFK1) 0.003
EEF2K (UniProt O00418) -0.108
EIF5A2 (UniProt Q9GZV4) 0.062
EFEMP1 (UniProt Q12805) 0.164
ELAC1 (UniProt Q9H777) -0.032
EIF4G1 (UniProt Q04637) -0.032
